Patent US20180142026A1
No constants are given. Whether binding was seen depends on the method and setting. Some results given as binding are weak or reduced against the parent protein; the word gives no strength.

How the values were obtained:
[1] = target: T1, murine CSF-1R on M-NFS-60 cells (murine) (UniProt P09581); assay: flow cytometry on M-NFS-60 cells
T1 sequence (looked up): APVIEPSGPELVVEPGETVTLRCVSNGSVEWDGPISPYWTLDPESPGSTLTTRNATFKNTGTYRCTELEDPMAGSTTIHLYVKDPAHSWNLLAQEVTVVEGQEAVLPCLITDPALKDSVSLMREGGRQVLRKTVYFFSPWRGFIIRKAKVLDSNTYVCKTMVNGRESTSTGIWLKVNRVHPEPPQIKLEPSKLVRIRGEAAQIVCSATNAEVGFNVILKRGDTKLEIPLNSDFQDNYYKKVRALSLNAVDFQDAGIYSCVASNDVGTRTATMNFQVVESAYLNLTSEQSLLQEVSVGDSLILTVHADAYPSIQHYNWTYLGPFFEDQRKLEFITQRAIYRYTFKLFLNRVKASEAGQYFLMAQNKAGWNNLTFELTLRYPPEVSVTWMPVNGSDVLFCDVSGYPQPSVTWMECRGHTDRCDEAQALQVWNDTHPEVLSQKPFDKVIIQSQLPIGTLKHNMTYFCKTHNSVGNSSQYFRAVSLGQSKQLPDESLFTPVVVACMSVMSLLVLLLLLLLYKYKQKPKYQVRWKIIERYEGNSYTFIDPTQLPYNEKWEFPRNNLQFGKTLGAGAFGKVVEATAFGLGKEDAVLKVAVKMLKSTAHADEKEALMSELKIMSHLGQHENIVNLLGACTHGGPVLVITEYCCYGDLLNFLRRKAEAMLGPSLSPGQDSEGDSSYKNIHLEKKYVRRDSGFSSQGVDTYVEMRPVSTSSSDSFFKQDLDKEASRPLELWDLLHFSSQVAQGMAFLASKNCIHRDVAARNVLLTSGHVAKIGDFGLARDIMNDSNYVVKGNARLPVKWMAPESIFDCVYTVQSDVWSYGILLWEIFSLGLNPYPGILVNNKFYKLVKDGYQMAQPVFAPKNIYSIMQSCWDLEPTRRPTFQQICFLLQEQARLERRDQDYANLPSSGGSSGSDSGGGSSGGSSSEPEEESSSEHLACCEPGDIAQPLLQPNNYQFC

[2] = target: T1, murine CSF-1R on M-NFS-60 cells (murine); assay: flow cytometry on M-NFS-60 cells; 0.5 ug/ml recombinant murine CSF-1, detected with biotinylated anti-murine CSF-1 antibody and Alexafluor 488 streptavidin

B1: recombinant murine CSF-1 (ligand, UniProt P07141 33-187, looked up)
chain: KEVSEHCSHMIGNGHLKVLQQLIDSQMETSCQIAFEFVDQEQLDDPVCYLKKAFFLVQDIIDETMRFKDNTPNANATERLQELSNNLNSCFTKDYEEQNKACVRTFHETPLQLLEKIKNFFNETKNLLEKDWNIFTKNCNNSFAKCSSRDVVTKP
In the case of B1, the binding [1] is reported as “binds” and the binding [2] is reported as “binds”.
